Results are given in words; binding and its absence hold for the method and conditions named. Binding seen in cells or lysates may run through a third protein. Some binding calls cover weakened binding; strength is not graded here.
B1: IFT139/TTC21B/THM1 (protein, UniProt Q0HA38 1-1315)
chain: MDSQGLKTLINYYCQERYYHHVLLVASEGMKKYSSDPVFRFYHAYGTLMEGKAQEALREFEAIKNKQDVSLCSLMALMYVHKMSPNPDREAILELDTKMKEQRKEAGRKALYHAGLFLWHIGRHDKAREYIDRMSKMPHDSNEGPILKAWLDITRGKEPYAKKALRYFEEGLQDGNDIFALLGKVLCLEIRQNYSGALETVSQIIVNFPSFLPAFEKKMKLQLALQDWDQTVETAQRLLLQDNHNVEALRMLALYYLCREGDVEKAATKLENLGNALDVMEPQNAQLFYKITLAFSRTCGRNQLILQKVQSFLEKAFSLTPQQAEIATELGYQMILQGKVKEAWKWYRTAMTLNESNISAVTGLIRCQLIEGQLQDADQQLEFFSEFQQSMGKSAELMYLHAVLATKKNNRQDEVINLLNDVVNTHFSHLEDLPLGIQYFEKLNPDFLLEVVTEYLNLCPIQPAGPGQPLSPVLRRCSSVLETIIRSVPGLPQAVFLMAKVKYLSGDTEAAYNNLQHCLEHSPSYAEAHLLMAQVYLSQDKVKLCSQSLELCLSYNFNVREYPLYHLIKAQSQKKMGEVAEAIKTLHMAMNLPGMRRSRASSKSKHRTEVDASHRLSIFLELVEVHRLNGEQHEAAKVLQDAIHEFSGTCEELRVTIANADLALAQGDTDRALSMLRNVTTEQPYFIEAKEKMADIYLKHRKEKMLYITCYREIAERMPSPRSFLLLGDAYMNIQEPEEAIVAYEQALNQNPKDGTLARKIGKALVKTHNYSKAITYYEAALKSGQQNCLCYDLAELLLRLKLYEKAEKVLQHSLAHEPVSELSALMVDGRSQVLLAKVYSKMERPSDAIAALQQARELQARILKRVQMEQPDAVPSQKHFAAEICAEIAKHSAAQRDYEKAITFYREALVHCETDSKIMLELAQLYLAQEDLDASLRHCALLLQRDQDNEPATMLMADLMFRKQDYEQAVYHLQQLLDRKPDNFMTLSRLIDLLRRCGKLEDVPRFFLMAEKHNSRTKLEPGFQYCKGLHFWYTGEPNDALRHFNKARKDSDWGQNALYNMIEICLNPDNETIGGEVFENLNGDLGTSPEKQESVQLAVRTAEKLLKELKPQTVQGRLQLRIMENCCLMATKQKSSVEQALNTFTEIAASEKDHIPALLGMATAYMILKQTPKARNQLKRIAKMPWNPIEAEDLEKSWLLLADIYIQSAKYDMAEELLKRCLCHNRSCCKAYEYMGYIMEKEQAYTDAAFNYEMAWKHSNQTNPAVGYKLAFNYLKAKRYVDAIDVCHQVLEAHPTYPKIRKDILDKARASLRP
B2: IFT43 (protein, UniProt Q9DA69 1-206)
chain: MDDLLDLGEERRRSSATSGAKMGRRAHQESTQAENYLNSKNSSLTQTGEAPPPKPPRRQGGWADDSMKMAKLGKKVSEEMEDHRLRQQNLMGSDDDDIPVIPDLEDVQEEDFVLQVASPPSIQVNRVMTYRDLDNDLMKYSAFQTLDGEIDLKLLTKVLAPEHEVREDDVGWDWDHLYTEVSSELLTEWDLLRAEKEDPVGPSRYI

By UniProt entry, the sequences of proteins in these tests, tags left out.
UniProt E9PY46: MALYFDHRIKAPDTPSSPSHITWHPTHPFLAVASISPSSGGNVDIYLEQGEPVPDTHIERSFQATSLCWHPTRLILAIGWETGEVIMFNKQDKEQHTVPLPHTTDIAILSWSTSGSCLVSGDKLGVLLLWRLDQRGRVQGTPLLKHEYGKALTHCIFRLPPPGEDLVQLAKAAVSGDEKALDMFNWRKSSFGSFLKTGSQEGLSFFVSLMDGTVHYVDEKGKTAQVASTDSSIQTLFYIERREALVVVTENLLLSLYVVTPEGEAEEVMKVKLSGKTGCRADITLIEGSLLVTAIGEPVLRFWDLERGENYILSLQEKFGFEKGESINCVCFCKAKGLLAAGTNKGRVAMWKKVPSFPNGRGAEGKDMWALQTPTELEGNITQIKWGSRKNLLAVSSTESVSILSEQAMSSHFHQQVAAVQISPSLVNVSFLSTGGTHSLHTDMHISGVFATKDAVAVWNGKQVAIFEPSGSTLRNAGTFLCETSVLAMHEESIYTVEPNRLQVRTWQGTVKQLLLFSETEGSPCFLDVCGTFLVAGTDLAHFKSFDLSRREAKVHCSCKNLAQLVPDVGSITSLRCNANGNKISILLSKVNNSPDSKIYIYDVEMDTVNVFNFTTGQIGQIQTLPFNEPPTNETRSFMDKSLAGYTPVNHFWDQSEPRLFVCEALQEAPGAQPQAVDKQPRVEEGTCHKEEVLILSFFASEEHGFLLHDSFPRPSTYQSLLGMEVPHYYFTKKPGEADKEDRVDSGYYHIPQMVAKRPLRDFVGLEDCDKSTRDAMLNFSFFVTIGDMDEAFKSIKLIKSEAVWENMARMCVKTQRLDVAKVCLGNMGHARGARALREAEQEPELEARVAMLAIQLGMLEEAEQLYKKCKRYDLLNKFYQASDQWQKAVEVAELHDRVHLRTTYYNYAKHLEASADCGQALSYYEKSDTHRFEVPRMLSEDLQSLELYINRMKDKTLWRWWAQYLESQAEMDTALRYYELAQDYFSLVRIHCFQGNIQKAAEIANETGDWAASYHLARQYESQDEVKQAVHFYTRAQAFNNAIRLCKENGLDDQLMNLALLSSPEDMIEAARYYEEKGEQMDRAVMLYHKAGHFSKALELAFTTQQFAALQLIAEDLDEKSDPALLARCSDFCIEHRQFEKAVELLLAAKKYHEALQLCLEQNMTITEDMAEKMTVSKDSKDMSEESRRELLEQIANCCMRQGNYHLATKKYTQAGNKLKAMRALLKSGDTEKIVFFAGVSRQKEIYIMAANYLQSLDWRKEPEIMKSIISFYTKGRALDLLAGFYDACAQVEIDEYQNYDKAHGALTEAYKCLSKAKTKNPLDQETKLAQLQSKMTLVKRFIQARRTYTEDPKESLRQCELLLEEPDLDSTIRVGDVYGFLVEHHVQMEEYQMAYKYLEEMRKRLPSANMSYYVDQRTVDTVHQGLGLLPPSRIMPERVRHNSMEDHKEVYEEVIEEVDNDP

Biological target: IFT140 (mouse (endogenous in E11.5 embryos)) (UniProt E9PY46)
Experiment: co-IP

| Binder | binding |
| --- | --- |
| B1 | binds |
| B2 | binds |

From paper doi:10.1101/2020.12.22.423978
